PubChem BioAssay AID504774, Drosophila RNAi Screening Center – 2011

Aim: 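Genes required for cells to withstand methyl methanesulphonate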 (primary screen)
Cells: Drosophila Kc167 cells
Reagents: long dsRNA against Drosophila genes, about 0.25 µg dsRNA per well
Duration: about 6 days: 3 days knock-down, then 3 days with or without MMS
Challenge: methyl methanesulphonate 0.004% (w/v) for 3 days after knock-down
Read-out: 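Viability in wells given MMS, read as ATP luminescence, normalised by quantiles plate by plate and averaged across replicates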
Scale: mean viability with MMS: higher = more surviving cells after MMS
The screen tested about 23,000 reagents; below is a random part of those that have a named target and a result. 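Values are quantile-normalised luminescence on an arbitrary scale; higher means more cells surviving MMS.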 Names joined by + are all predicted targets of the reagent. Not all columns of the deposit are shown. Reagent sequences are not shown.

{"target gene":"TotB (Turandot B)","DRSC id":"DRSC15842","mean viability with MMS":3.55e6}
{"target gene":"ed (echinoid)","DRSC id":"DRSC00350","mean viability with MMS":3.62e6}
{"target gene":"ed (echinoid)","DRSC id":"DRSC00438","mean viability with MMS":3.46e6}
{"target gene":"ed (echinoid)","DRSC id":"DRSC00439","mean viability with MMS":3.47e6}
{"target gene":"ed (echinoid)","DRSC id":"DRSC00478","mean viability with MMS":3.50e6}
{"target gene":"Fitm (Fat storage inducing transmembrane protein)","DRSC id":"DRSC09772","mean viability with MMS":3.47e6}
{"target gene":"VhaAC45RP (VhaAC45-related protein)","DRSC id":"DRSC15423","mean viability with MMS":1.68e6}
{"target gene":"CG5645","DRSC id":"DRSC10532","mean viability with MMS":3.35e6}
{"target gene":"thoc5","DRSC id":"DRSC04327","mean viability with MMS":3.33e6}
{"target gene":"sick (sickie)","DRSC id":"DRSC02090","mean viability with MMS":3.62e6}
{"target gene":"sick (sickie)","DRSC id":"DRSC02301","mean viability with MMS":3.46e6}
{"target gene":"sick (sickie)","DRSC id":"DRSC02302","mean viability with MMS":3.48e6}
{"target gene":"sick (sickie)","DRSC id":"DRSC02303","mean viability with MMS":3.35e6}
{"target gene":"sick (sickie)","DRSC id":"DRSC02306","mean viability with MMS":3.49e6}
{"target gene":"spn-D (spindle D)","DRSC id":"DRSC22641","mean viability with MMS":3.53e6}
{"target gene":"sgg (shaggy)","DRSC id":"DRSC17228","mean viability with MMS":3.66e6}
{"target gene":"sgg (shaggy)","DRSC id":"DRSC17722","mean viability with MMS":3.61e6}
{"target gene":"sgg (shaggy)","DRSC id":"DRSC18832","mean viability with MMS":3.75e6}
{"target gene":"CG5742","DRSC id":"DRSC06949","mean viability with MMS":3.64e6}
{"target gene":"CG10467","DRSC id":"DRSC09728","mean viability with MMS":3.56e6}
{"target gene":"CG4806","DRSC id":"DRSC04491","mean viability with MMS":3.42e6}
{"target gene":"Or22b (Odorant receptor 22b)","DRSC id":"DRSC00765","mean viability with MMS":3.56e6}
{"target gene":"CG7006","DRSC id":"DRSC16169","mean viability with MMS":3.46e6}
{"target gene":"Obp56b (Odorant-binding protein 56b)","DRSC id":"DRSC06551","mean viability with MMS":3.39e6}
{"target gene":"Obp18a (Odorant-binding protein 18a)","DRSC id":"DRSC19736","mean viability with MMS":3.56e6}
{"target gene":"Lrch (Leucine-rich-repeats and calponin homology domain protein)","DRSC id":"DRSC02996","mean viability with MMS":3.31e6}
{"target gene":"CG6974","DRSC id":"DRSC16160","mean viability with MMS":3.57e6}
{"target gene":"CG12655","DRSC id":"DRSC20678","mean viability with MMS":3.65e6}
{"target gene":"CG31344","DRSC id":"DRSC16069","mean viability with MMS":3.58e6}
{"target gene":"CenG1A (Centaurin gamma 1A)","DRSC id":"DRSC02538","mean viability with MMS":3.75e6}
{"target gene":"CenG1A (Centaurin gamma 1A)","DRSC id":"DRSC03505","mean viability with MMS":3.86e6}
{"target gene":"CenG1A (Centaurin gamma 1A)","DRSC id":"DRSC03506","mean viability with MMS":3.54e6}
{"target gene":"aux (auxilin)","DRSC id":"DRSC12161","mean viability with MMS":3.62e6}
{"target gene":"pre-mod(mdg4)-U + mod(mdg4)","DRSC id":"DRSC13476","mean viability with MMS":3.53e6}
{"target gene":"CG13893","DRSC id":"DRSC08363","mean viability with MMS":3.43e6}

A stretch taken from the entries so far, as a working copy:
{"target gene":"sgg (shaggy)","DRSC id":"DRSC17228","mean viability with MMS":3.66e6}
{"target gene":"sgg (shaggy)","DRSC id":"DRSC17722","mean viability with MMS":3.61e6}
{"target gene":"sgg (shaggy)","DRSC id":"DRSC18832","mean viability with MMS":3.75e6}
